Reference: patent publication US7211594B2, “Indazole compounds and compositions thereof as JNK inhibitors and for the treatment of diseases associated therewith” (Signal Pharmaceuticals, LLC, priority 2000, dated 2007)
Some of these results come from one statement about several compounds together.

Target: His6-JNK2 (Homo sapiens, UniProt P45984)
Assay: JNK2 Assay (c-Jun phosphorylation, 32P-ATP filter assay)
Type: biochemical
Conditions: concentration at which GST-c-Jun(1-79) phosphorylation is reduced to 50% of the control value; 11 μM ATP

## 4-{(1E)-2-[(3-(4-FLUOROPHENYL)-1H-INDAZOL-5-YL]VINYL}BENZOIC ACID [Example 135]
  IC50: ≤ 10 µM
